Laboratory results from patent publication US4837371A, “Process for concentration of an aqueous solution of amino acid” (Mitsui Toatsu Chemicals, Inc., priority 1986, dated 1989).
At least one read-out could not be matched to a standard name with certainty.

Experiment: batch concentration without isopropyl alcohol, dissolved concentration at deposition (Example 4)
Type: physicochemical
Conditions: no isopropyl alcohol, pH 10.0, 40° C., 30 kg/cm^2, 2.5 hours

Question: With `N[C@@H](Cc1c[nH]c2ccccc12)C(=O)O` [L-tryptophan] as the molecule, how does the “concentration of L-tryptophane dissolved in the concentrated solution at deposition” value read?
Answer: 3.8 % by weight
